Results on one substance are retold here after publication PMC5482481.

By UniProt entry, the sequences of proteins in these tests, tags left out.
UniProt P37231: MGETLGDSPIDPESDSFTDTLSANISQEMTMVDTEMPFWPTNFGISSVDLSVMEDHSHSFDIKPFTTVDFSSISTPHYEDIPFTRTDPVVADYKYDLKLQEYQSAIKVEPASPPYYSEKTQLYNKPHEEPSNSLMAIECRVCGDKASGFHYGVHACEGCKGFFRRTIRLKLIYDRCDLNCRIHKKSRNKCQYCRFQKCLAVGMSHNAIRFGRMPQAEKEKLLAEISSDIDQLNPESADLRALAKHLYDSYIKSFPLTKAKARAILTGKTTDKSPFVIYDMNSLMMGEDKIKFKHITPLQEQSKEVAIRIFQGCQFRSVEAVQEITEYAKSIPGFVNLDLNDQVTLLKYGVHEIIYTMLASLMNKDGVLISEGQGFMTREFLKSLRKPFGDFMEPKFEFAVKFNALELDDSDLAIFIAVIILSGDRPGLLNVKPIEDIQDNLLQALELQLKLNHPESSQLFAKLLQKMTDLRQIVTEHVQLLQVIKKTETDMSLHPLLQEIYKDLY

Assay [1] concerns the target T1, pig Pgc1α p.C430S, myc-tagged (pig) (UniProt Q865B6).
T1 sequence (chain, O-GlcNAc (sites not stated; level higher than in WT)): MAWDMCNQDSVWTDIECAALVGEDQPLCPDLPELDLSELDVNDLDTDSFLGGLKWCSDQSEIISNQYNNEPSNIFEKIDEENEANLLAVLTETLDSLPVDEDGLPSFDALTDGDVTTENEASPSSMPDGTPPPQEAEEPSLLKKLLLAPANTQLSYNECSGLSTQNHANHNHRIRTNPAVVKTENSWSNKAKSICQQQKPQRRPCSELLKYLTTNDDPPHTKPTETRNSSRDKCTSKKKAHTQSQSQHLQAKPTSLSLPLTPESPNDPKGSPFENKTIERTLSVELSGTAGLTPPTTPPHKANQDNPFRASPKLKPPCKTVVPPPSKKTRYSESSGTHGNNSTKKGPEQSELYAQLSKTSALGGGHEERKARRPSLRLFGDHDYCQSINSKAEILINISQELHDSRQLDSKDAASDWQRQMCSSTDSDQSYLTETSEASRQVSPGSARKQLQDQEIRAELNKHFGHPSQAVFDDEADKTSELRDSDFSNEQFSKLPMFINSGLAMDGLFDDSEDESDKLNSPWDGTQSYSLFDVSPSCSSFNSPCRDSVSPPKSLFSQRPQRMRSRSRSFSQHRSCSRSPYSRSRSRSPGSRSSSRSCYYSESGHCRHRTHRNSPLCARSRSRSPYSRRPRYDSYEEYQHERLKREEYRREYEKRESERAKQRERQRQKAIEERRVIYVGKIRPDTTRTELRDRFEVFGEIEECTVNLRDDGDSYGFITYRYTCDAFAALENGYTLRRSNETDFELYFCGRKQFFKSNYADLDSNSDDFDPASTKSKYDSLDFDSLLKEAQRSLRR
Description: co-IP; HEK293T cells co-transfected with DYK-tagged OGT and Pgc1α-myc WT or p.C430S; lysis in 50 mM TRIS pH 8, 150 mM NaCl, 1% NP-40, 0.1 mM EDTA, 2 mM nicotinamide, 10 mM NaF; anti-myc (9E10) at 4 °C overnight, Dynabeads 2 h at 4 °C; blot with anti-PPARγ; non-transfected cells as control.

In assay [2] the target is T2, pig Pgc1α wild type (p.430C), myc-tagged (pig) (UniProt Q865B6).
T2 sequence (chain, O-GlcNAc (sites not stated; level lower than in p.C430S)): T1 sequence (chain, O-GlcNAc (sites not stated; level higher than in WT)) with S430C
The assay is described as above.

Residue numbers refer to the chain shown, from its start. Results are given in words; binding and its absence hold for the method and conditions named. Binding seen in cells or lysates may run through a third protein. Some results given as binding are weak or reduced against the parent protein; the word gives no strength. Sequences can lack the tags named with a protein.

PPARγ (from UniProt P37231 1-505): the binding entry in assay [1] and in assay [2] was “binds” in each case.
